From PubChem BioAssay AID2685 (National Center for Advancing Translational Sciences (NCATS), 2010)
This is one part of the list. These are further read-outs of the screen, such as a control signal, another cell line or another target. No call is given for them. Compounds called inactive in the main read-out are mostly missing here. Potencies come from curve fits of mixed quality, noted in brackets.

Test: qHTS Assay for Lipid Storage Modulators in Drosophila S3 Cells;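 for cell number change: cells counted by Cell Tracker Red CMTPX staining in the red channel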
Details: BODIPY lipid droplet fluorescence, 18-24 h; for cell number change: measured here: cell count max response, cells fed with added oleic acid
Method in brief: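 Drosophila S3 cells loaded with oleic acid (400 uM, as added) and compounds at several concentrations; lipid droplets imaged by 488-nm laser-scanning cytometry, 500–530 nm intensity and object ratio to cell channel. Percent activity normalized to 20 uM Triacsin C.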

[1] = measured here: lipid fluorescence (Fed channel) AC50, cells fed with added oleic acid
[2] = measured here: cell number channel AC50, cells fed with added oleic acid

Row | Structure (SMILES) | cell number change [%] | AC50 [1] | AC50 [2]
1 | COc1ccccc1N1CCN(CCCCOc2ccc(F)cc2)CC1 | 22.2 | 6.51 µM [falling, single point] | 
2 | Cc1ccc(Nc2ccc(C(F)(F)F)cc2[N+](=O)[O-])cc1 | -40.9 | 13 µM [falling, partial curve] | 9.2 µM [falling, partial curve]
3 | OC(CNCCc1ccc(Cl)cc1)COc1ccc2ccccc2c1 (configuration not stated) | -72.6 |  | 1.03 µM [falling, partial curve]
4 | Cc1cccc(NC(=O)NCC(c2ccco2)N2CCCCC2)c1 (configuration not stated) | -37.9 | 4.61 µM [falling, partial curve] | 
5 | O=C(Nc1ccc(S(=O)(=O)Nc2nccs2)cc1)c1nn(-c2ccc(F)cc2)ccc1=O | -0.382 | 0.58 µM [rising, single point] | 
6 | Cc1cc(CN(C)C(=O)c2cc(COc3ccc4ncccc4c3)on2)on1 | -46.7 |  | 8.2 µM [falling, partial curve]
7 | COC(=O)NC(=C(Cl)Cl)S(=O)(=O)c1ccccc1 | -41.4 | 1.46 µM [falling, full curve] | 18.4 µM [falling, partial curve, poor fit]
8 | O=C(Nc1cc(Cl)ccc1-n1cncn1)c1cncc(Br)c1 | 40.4 |  | 20.6 µM [rising, single point]
9 | Cc1onc(-c2c(F)cccc2Cl)c1C(=O)Nc1cccc(Cn2cccn2)c1 | 3.85 | 9.2 µM [rising, partial curve, poor fit] | 
10 | Fc1ccc2nc(Nc3nc4cc5c(cc4s3)OCO5)sc2c1 | -50.1 | 29.1 µM [falling, single point] | 32.6 µM [falling, single point]
11 | COc1ccccc1CC(=O)Nc1cc(C)ccn1 | -8.47 |  | 
12 | Cc1ccc(-c2c(C)n([O-])c3c([n+]2=O)CCC3)o1 | 9.53 | 0.731 µM [falling, full curve, poor fit] | 
13 | CN(C)c1ccc(/C=N/NC(=O)C(=O)/C=C2\NC3(CCCC3)Cc3ccccc32)cc1 | 15.7 | 29.1 µM [falling, single point] | 6.51 µM [rising, single point]
14 | COc1ccc(Cc2nnc(SCC(=O)Nc3ccc(C)cc3)n(N)c2=O)cc1 | 80.1 |  | 18.4 µM [rising, partial curve]
15 | Cc1ccc2nc(NC(=O)c3ccc(Cl)s3)sc2c1 | -31.8 | 29.1 µM [falling, single point] | 1.64 µM [falling, full curve]
16 | O=C(CCc1ccc(S(=O)(=O)N2CCOCC2)cc1)Nc1ccc2c(c1)OCCO2 | -22.9 |  | 0.651 µM [falling, single point]
17 | Cc1ccc(Cl)cc1N=C(N)N=C(N)N | 94.5 |  | 
18 | Cc1ccccc1N/N=C1\CCCNC1=O | -20 |  | 
19 | CC(OC(=O)c1ccc2noc(-c3ccccc3)c2c1)C(N)=O (configuration not stated) | -2.63 |  | 0.58 µM [falling, single point]
20 | Cc1ccc2oc(C(=O)Nc3nnc(CC(C)C)s3)c(C)c2c1 | 12.9 |  | 3.66 µM [rising, partial curve, poor fit]

Row | Structure (SMILES) | cell number change [%] | AC50 [1] | AC50 [2]
21 | O=c1oc2ccccc2c(Nc2ccccc2)c1CN1CCCCC1 | 26.2 |  | 
22 | COc1ccc2c(c1)C(c1ccccc1)NC(=O)C2 (configuration not stated) | 12.7 | 2.06 µM [falling, partial curve] | 2.06 µM [falling, single point]
23 | COc1cccc(C(=O)Nc2ccc(S(=O)(=O)N3CCCCC3)cc2)c1OC | -0.507 | 16.4 µM [falling, single point] | 
24 | COc1cccc(C2CC(c3cccc(Br)c3)n3ncnc3N2)c1 (configuration not stated) | -0.142 |  | 
25 | CC(C)(C)NC(=O)CN(Cc1cccs1)C(=O)CNS(=O)(=O)c1ccccc1 | -4.79 |  | 
26 | Cn1nnc(NC(=S)NC(=O)c2cc3ccccc3o2)n1 | 12.3 | 20.6 µM [rising, single point] | 
27 | O=C(Nc1ccccc1)N(C1=NCCCCS1)c1ccccc1 | -6.56 | 3.26 µM [falling, single point] | 
28 | O=C(C(Sc1ccccc1)c1ccccc1)N1CCN(c2ccccc2F)CC1 (configuration not stated) | -22.8 | 29.1 µM [falling, single point] | 
29 | COC(=O)C1C(=O)C2=C(CC1C)NC(=O)CC2c1cccc(C)c1 (configuration not stated) | 19.9 | 3.26 µM [rising, full curve, poor fit] | 
30 | CN(Cc1nc(-c2ccccn2)no1)S(=O)(=O)c1ccc(Cl)cc1 | 225 | 10.3 µM [rising, partial curve] | 16.4 µM [rising, partial curve]
31 | O=C(NC(Cc1c[nH]c2ccccc12)C(=O)O)/C(=C/c1ccco1)NC(=O)c1ccccc1 (configuration not stated) | -10.8 | 0.259 µM [falling, partial curve, poor fit] | 1.16 µM [falling, full curve]
32 | CN(C(=O)c1ccc2c(c1)OCCO2)c1c(N)n(Cc2ccccc2)c(=O)[nH]c1=O | 1.45 | 0.461 µM [falling, full curve, poor fit] | 0.366 µM [falling, full curve, poor fit]
33 | CC1CCCN(C(=O)c2cccc(S(=O)(=O)N3CCCC3)c2)C1 (configuration not stated) | -3.2 | 0.103 µM [rising, full curve, poor fit] | 
34 | O=C(c1ccc([N+](=O)[O-])o1)N1CCN(c2nc3c(F)cc(F)cc3s2)CC1 | -30.7 | 0.651 µM [falling, full curve] | 10.3 µM [falling, partial curve]
35 | Cc1ccc2[nH]c(=O)c(C(c3nnnn3CC3CCCO3)N3CCCc4ccccc43)cc2c1 (configuration not stated) | 27.9 |  | 2.91 µM [rising, full curve, poor fit]
36 | CCOC(=O)C1CCN(C(=S)Nc2ccc(C)cc2)CC1 | -7.4 | 0.461 µM [rising, single point] | 
37 | COc1cccc(C(=O)Nc2cc3c(cc2Br)OCCCO3)c1 | 37.9 | 6.51 µM [rising, full curve, poor fit] | 29.1 µM [rising, single point]
38 | N#CC1CCN(C(=O)c2ccc3c(Cl)c4c(nc3c2)CCCC4)CC1 | -1.79 | 29.1 µM [falling, single point] | 
39 | CC(=O)c1c(C)nc2ccc(Br)cc2c1C(=O)O | -0.395 | 2.59 µM [falling, partial curve] | 
40 | CC(NC(=O)c1sc2ccccc2c1Cl)C1CCCO1 (configuration not stated) | -39.8 |  | 29.1 µM [falling, single point]

Row | Structure (SMILES) | cell number change [%] | AC50 [1] | AC50 [2]
41 | O=[N+]([O-])c1cc(C(F)(F)F)ccc1Cl | -1.81 | 0.184 µM [rising, full curve] | 
42 | C=CCn1c(=O)c(C(=O)Nc2ccccc2OC)c(O)c2ccccc21 | 57 | 2.31 µM [rising, single point] | 5.17 µM [rising, full curve]
43 | C[C@@H]1CN(C(=O)c2nc3ccc(Cl)cn3c2CN[C@H]2CCCCNC2=O)C[C@H](C)O1 | 17.2 |  | 
44 | COc1ccc(CCNC(=O)CCCn2c(SCC#N)nc3ccccc3c2=O)cc1OC | -4.77 |  | 
45 | COc1ccc(/C=N/NC(=O)c2nc(-c3ccccc3)cc(-c3ccccc3)n2)cc1O | -1.67 |  | 
46 | COc1ccc(N2CCN(C(=O)COc3ccc4c(C)c(C)c(=O)oc4c3C)CC2)cc1 | 71.6 | 1.84 µM [rising, full curve, poor fit] | 11.6 µM [rising, partial curve]
47 | Cc1cc(=O)n(CC(C)C)c(O)c1C#N | -74.3 | 20.6 µM [falling, single point] | 16.4 µM [falling, partial curve]
48 | COc1ccc(S(=O)(=O)N2CCN(c3ccc4nnc(-c5ccc(F)cc5)n4n3)CC2)cc1 | 11.4 |  | 0.206 µM [rising, full curve, poor fit]
49 | O=C(COC(=O)CCC(=O)c1cccs1)NC1CCCCC1 | 18.4 | 23.1 µM [rising, partial curve] | 
50 | CCn1c(=O)cc(SCC(=O)N2CCN(C)CC2)c2ccccc21 |  | 6.51 µM [rising, single point] | 
51 | COc1ccc(S(=O)(=O)N2CCCOC2CNC(=O)C(=O)NCCCn2ccnc2)cc1OC (configuration not stated) | -28.1 | 16.4 µM [falling, single point] | 
52 | COC(=O)c1c(C(=O)c2ccc(Br)cc2)n(C)c2ccccc12 | -5 |  | 
53 | Cc1ccc(NC(=O)CCOc2ccccc2)cc1S(=O)(=O)Nc1ccccc1Cl | 6.58 | 6.51 µM [rising, single point] | 
54 | COc1cc(C2N(Cc3ccccc3)CCN2Cc2ccccc2)ccc1OC(C)=O | 36.5 |  | 29.1 µM [rising, single point]
55 | Cc1nnc(SCc2cc(=O)n3[nH]cnc3n2)s1 | -25.4 | 2.06 µM [falling, full curve] | 2.31 µM [falling, full curve, poor fit]
56 | COc1ccccc1OCC(=O)NCCSCc1ccccc1Cl | 107 | 6.51 µM [falling, partial curve] | 6.51 µM [falling, partial curve]
57 | Cc1ccc(-n2c(C)cc(C)c(C#N)c2=O)cc1 | -0.167 | 18.4 µM [falling, single point] | 
58 | CCOCCCNC(=O)CCNS(=O)(=O)c1ccc(C)cc1 | -162 | 20.6 µM [falling, partial curve] | 20.6 µM [falling, partial curve]

Ordered by count of non-hydrogen atoms (high to low): part of the list above.
Row | Structure (SMILES) | cell number change [%] | AC50 [1] | AC50 [2]
54 | COc1cc(C2N(Cc3ccccc3)CCN2Cc2ccccc2)ccc1OC(C)=O | 36.5 |  | 29.1 µM [rising, single point]
38 | N#CC1CCN(C(=O)c2ccc3c(Cl)c4c(nc3c2)CCCC4)CC1 | -1.79 | 29.1 µM [falling, single point] | 
36 | CCOC(=O)C1CCN(C(=S)Nc2ccc(C)cc2)CC1 | -7.4 | 0.461 µM [rising, single point] | 
